These results are taken from PubChem BioAssay AID445 (National Center for Advancing Translational Sciences (NCATS), 2006).

This is one part of the list. The main result of the screen is listed elsewhere. These columns were measured beside it and carry no call. Compounds called inactive in the main read-out are mostly missing here. Words in brackets tell the shape of the fitted curve; partial curves, single points and poor fits give uncertain potencies.

This assay can be described thus: IkB Signaling. Particulars: ABC-DLBCL IkBa-CBG/CBR dual luciferase ratio (green luciferase fused to IkBa over red control in OCI-Ly3 lymphoma cells), 4 h; measured here: control luc red channel unless noted. In a few lines: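 Luminescence ratio of IκBα-fused green versus native red beetle luciferase in OCI-Ly3 cells, 4 h post-doxycycline with compound; red signal alone, scaled from basal (0%) to zero light (-100%), flagged nonspecific or cytotoxic effects.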
For orientation: AC50 means the midpoint of the concentration-response curve, whichever way the signal moves. On to `C/C=C/Cn1c(SC)nc2c1c(=O)[nH]c(=O)n2C`, for which the AC50 was 251 nM [rising, partial curve, poor fit] [measured here: IkB-luc green channel].
Consider `Cc1cccc(C(=O)Nc2cccc(C(=O)OCc3cc(=O)n4c5c(sc4n3)CCCC5)c2)c1`, for which the AC50 is 2 µM [falling, full curve].
`CCn1c(C)c(C)c2cc(C(=O)NCCc3cc(OC)c(OC)c(OC)c3)ccc21`: the AC50 was 0.2 µM [rising, full curve, poor fit].
With `CCOCCOC(=O)C1=C(C)NC2=C(C(=O)CC(c3cccs3)C2)C1c1ccsc1` (stereo not given), the AC50 was 3.98 µM [falling, partial curve].
As for `O=C(CC1N=C2c3ccccc3N=C(SCC(=O)Nc3cccc(Cl)c3)N2C1=O)NCc1cccs1` (stereo not given), the AC50 is 25.1 µM [falling, partial curve].
`Cc1cc(C)cc(N(CC(=O)N2CCN(c3ccccc3)CC2)S(=O)(=O)c2c(C)noc2C)c1`: the AC50 is 10 µM [falling, partial curve].
Take `Oc1c(C(c2ccc(Cl)cc2Cl)N2CCOCC2)sc2nc(-c3ccco3)nn12` (stereo not given): the AC50 was 39.8 µM [falling, single point].
Regarding `O=C(NCc1ccc(F)cc1)c1ccc(CS(=O)(=O)c2ccc(Cl)cc2)o1`, the AC50 is 39.8 µM [falling, single point].
On to `Cc1ccc2c(=O)cc(C(=O)Nc3nnc(CC(C)C)s3)oc2c1C`, for which the AC50 is 0.2 µM [falling, full curve, poor fit].
With `CCOC(=O)c1sc(NC(=O)c2ccc(C)o2)nc1C`, the AC50 is 15.8 µM [falling, partial curve].
As for `Nc1c(S(=O)(=O)c2cccs2)c2nc3ccccc3nc2n1Cc1cccs1`, the half-maximal activity concentration (AC50) is 12.6 µM [falling, partial curve].
Regarding `O=C(CN(c1ccc(Cl)c(C(F)(F)F)c1)S(=O)(=O)c1ccccc1)N1CCc2ccccc2C1`, the AC50 was 25.1 µM [falling, partial curve].
As for `Cc1ccc(NC(=O)c2sc(-n3nc(C)c(CCC(C)C)c3C)nc2C)cc1C`, the AC50 was 0.158 µM [falling, full curve, poor fit].
Regarding `CCc1ccccc1N(C)C(=O)C1CCCN(c2ncnc3onc(-c4ccc(F)cc4)c23)C1` (stereo not given), the AC50 is 20 µM [falling, partial curve].
The figure for `Cc1ccc(OCCn2c(CNc3cccc(C)c3)nc3ccccc32)cc1` is 7.94 µM [falling, full curve]; for `COc1ccccc1CNc1cc(-c2ccccc2)nc2nncn12` it is 31.6 µM [falling, partial curve].
Turning to `CCCCOC(=O)c1ccc(NC(=O)c2cc(-c3ccccc3)on2)cc1`, the AC50 is 0.0794 µM [falling, full curve].
In the case of `CC(C)c1ccc2occ(CC(=O)N(Cc3ccc(F)cc3)C3CCS(=O)(=O)C3)c2c1` (stereo not given), the AC50 is 15.8 µM [falling, partial curve].
For the compound `CC(=O)c1ccc(N2CCN(C(=O)Nc3ccc(C(C)C)cc3)CC2)cc1`, the AC50 is 15.8 µM [falling, partial curve].
Take `Cc1cc(N)n2ncc(-c3ccccc3)c2n1`: the AC50 is 12.6 µM [falling, partial curve].
Take `Cn1c2ccccc2c2cnn(CC(=O)NCCCN3CCN(c4ccccc4F)CC3)c(=O)c21`: the AC50 is 10 µM [falling, partial curve].
As for `COc1ccc(NC(=O)c2ccco2)cc1NC(=O)c1c(OC)cccc1OC`, the AC50 is 31.6 µM [falling, single point].
For the compound `CC1CCCCN1C(=O)CCS(=O)(=O)c1cc2c(cc1Cl)NC(=O)CO2` (stereo not given), the AC50 was 39.8 µM [falling, single point].
With `Cc1cccc(C(=O)N2CCc3cc(CNS(=O)(=O)c4ccc(F)c(Cl)c4)ccc32)c1`, the AC50 is 3.16 µM [falling, partial curve].
`CCC(=O)N1CCc2cc(S(=O)(=O)Nc3cc(C)ccc3OC)ccc21`: the AC50 is 12.6 µM [falling, partial curve].
`Cc1cc(C)cc(NC(=O)c2cc(S(=O)(=O)N3CCc4ccccc43)cn2C)c1`: the AC50 is 15.8 µM [falling, partial curve].
On to `COc1ccccc1CNC(=O)c1ccc2c(c1)N(Cc1c(F)cccc1Cl)C(=O)CS2`, for which the AC50 was 6.31 µM [falling, full curve, poor fit].
On to `COc1cccc(NC(=O)Cn2c(=O)n(CCCCC(=O)NCc3ccccc3Cl)c(=O)c3ccccc32)c1`, for which the concentration at half-maximal activity (AC50) was 10 µM [falling, partial curve].
On to `CC(C)NC(=O)C1(O)c2ccccc2NC(=O)N1c1ccc(Cl)c(Cl)c1` (stereo not given), for which the AC50 is 12.6 µM [falling, partial curve].
For the compound `O=C(CSc1ncc(S(=O)(=O)c2ccc(Br)cc2)c(=O)[nH]1)Nc1ccc2c(c1)OCCO2`, the AC50 was 15.8 µM [falling, partial curve].
Turning to `CC1CCN(C(=O)CSc2nc3ccccc3nc2Cc2ccccc2)CC1`, the AC50 is 31.6 µM [falling, partial curve].
As to `CCOc1ccccc1N1CCN(S(=O)(=O)c2ccc(C3CCCCC3)cc2)CC1`, the AC50 is 25.1 µM [falling, partial curve].
As for `Cc1ccc(C(NC(=O)N2CCOCC2)=C(Cl)Cl)cc1F`, the AC50 is 31.6 µM [rising, single point] [measured here: IkB-luc green channel].
In the case of `CCOC(=O)c1c(S(=O)(=O)N2CCC(C(=O)Nc3ccc(F)cc3F)CC2)c(C)n(C)c1C`, the half-maximal activity concentration (AC50) was 1 µM [falling, single point].
Regarding `COc1ccc(CNC(=O)Cc2c(C)c3cc4c(C)coc4c(C)c3oc2=O)cc1OC`, the half-maximal activity concentration (AC50) was 31.6 µM [falling, single point].
Turning to `COc1ccc(-n2cc(C(=O)Oc3cc(C)cc(C)c3)c3ccccc3c2=O)cc1`, the AC50 is 0.00631 µM [falling, full curve, poor fit].
With `COc1cccc(NC(=O)Cn2cc(C(=O)c3ccco3)c3ccccc32)c1`, the AC50 was 12.6 µM [falling, partial curve].
As to `Cc1cccc(NC(=O)C2CCN(c3cnccn3)CC2)c1`, the concentration at half-maximal activity (AC50) is 39.8 µM [falling, single point].
With `COc1ccc(CC(=O)Nc2ccc3nc(N4CCCCC4)cc(C)c3c2)cc1`, the AC50 is 25.1 µM [falling, single point].
In the case of `Cc1ccc(CNC(=O)c2cc3c(s2)-c2c(C)cccc2OC3)cc1`, the AC50 is 2.51 µM [falling, full curve, poor fit].
Regarding `COc1ccc2c(c1)c1c(c(=O)n(Cc3ccccc3)c(=O)n1CC(=O)NCc1ccccc1)n2C`, the half-maximal activity concentration (AC50) is 39.8 µM [falling, single point].
On to `CCOCCCNC(=O)c1ccc(-n2c(-c3ccccc3)cc3c2CCCCC3)cc1`, for which the AC50 was 12.6 µM [falling, partial curve].
In the case of `Oc1ccc(NCc2ccc(OCc3ccccc3)cc2)cc1`, the AC50 is 39.8 µM [falling, single point].
For `Cc1cc(=O)oc2cc(OCC(=O)Nc3ccc(O)c(C(=O)O)c3)ccc12`, the AC50 is 6.31 µM [falling, full curve, poor fit].
In the case of `CCOc1ccc(NC(=O)CCc2c(C)nc3cc(-c4ccc(Cl)cc4)nn3c2C)cc1` it was 0.02 µM [falling, full curve].
The figure for `Cc1ccc(CNC(=O)CS(=O)(=O)Cc2nc(-c3ccccc3C)oc2C)cc1` is 39.8 µM [falling, single point]; for `Cc1cccc(Cn2c(SCc3ccc(C(=O)NC4CCCC4)cc3)nc3ccncc32)c1` it is 0.0316 µM [falling, full curve, poor fit]; for `CCN(CC)S(=O)(=O)c1ccc2c(c1)N(CC(=O)NCCCN1CCN(c3cc(Cl)ccc3C)CC1)C(=O)CO2` it is 15.8 µM [falling, partial curve].
For `O=C(Cn1nnc(-c2ccc(CN3CCOCC3)cc2)n1)Nc1nc(-c2ccccc2)cs1`, the AC50 is 39.8 µM [rising, single point] [measured here: IkB-luc green channel].
The figure for `CCOC(=O)C1CCC(CN(Cc2ccc(OC)cc2)S(=O)(=O)c2ccc(F)c(C(=O)Nc3c(C)cccc3C)c2)CC1` (stereo not given) is 39.8 µM [falling, single point]; for `CC(C)c1ccc(NC(=O)N2CCC(c3nc4ccccc4o3)CC2)cc1` it is 20 µM [falling, partial curve]; for `COc1ccc(N2CC(NC(=O)C3CCCC3)CC2=O)cc1OC` (stereo not given) it is 3.16 µM [rising, full curve, poor fit] [measured here: IkB-luc green channel].
For the compound `COc1ccc(CCNC(=O)c2cn(C)c3ccc(S(=O)(=O)N(C)C)cc3c2=O)cc1OC`, the AC50 is 12.6 µM [rising, partial curve].
For `CC(C)c1ccc(NC(=O)Cn2nnc(C(=O)NCc3ccc(Cl)cc3)c2N)cc1`, the AC50 was 0.0316 µM [falling, full curve, poor fit].
In the case of `CCNC(=O)c1c(NC(=O)c2nc(S(=O)(=O)CC)ncc2Cl)sc2c1CCCC2` it was 3.98 µM [falling, full curve]; in that of `COc1ccccc1NC(=O)c1sc2nc3c(cc2c1N)CN(Cc1ccccc1)CC3`, 31.6 µM [falling, single point]; in that of `COc1ccccc1N(C(=O)c1snc(C(N)=O)c1N)C(C(=O)NC1CCCC1)c1ccco1` (stereo not given), 12.6 µM [falling, partial curve].
For the compound `CSc1nc(N)nc(SCCS(=O)(=O)c2ccc(Cl)cc2)c1C#N`, the AC50 is 3.16 µM [falling, full curve].
Take `O=C(CSc1nc(=O)[nH]c2c1CCCC2)NCc1ccc(F)cc1`: the AC50 is 12.6 µM [rising, partial curve].
Turning to `CCc1nc(C)cn1S(=O)(=O)c1ccc(Cl)c(Cl)c1OC`, the AC50 is 0.631 µM [rising, partial curve].
